Some of the results follow. The main result of the screen is listed elsewhere. These columns were measured beside it and carry no call. Compounds called inactive in the main read-out are mostly missing here. Potencies come from curve fits of mixed quality, noted in brackets.
Experiment: qHTS Assay to Find Inhibitors of Chronic Active B-Cell Receptor Signaling
Conditions: ABC-DLBCL IkBa-CBG/CBR reporter, luminescence ratio (green luciferase fused to IkBa over red control in TMD8 lymphoma cells), 4 h
Outline: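 Cell line TMD8 (human ABC DLBCL), stably expressing tet-inducible CBG68-IkBa fusion and CBR; IMDM/0.5% FBS; cpd up to 46 uM; dox induction, 4 h, 37C/5% CO2; dual luminescence; green/red ratio; MG132 control.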

[1] = measured here: CBR red luminescence, cell number
[2] = measured here: IkBa-CBG green luminescence

CCCCOc1ccc(CN2CCCCC2)cc1
AC50 [1]: 29.1 µM [rising, single point]

COc1ccc(C(=O)NCc2ccccc2C)cc1S(=O)(=O)NC1CCCC1
AC50 [1]: 9.2 µM [falling, partial curve, poor fit]

CCC1CCCCN1CCCNC(=O)C1CCC(=O)N1Cc1ccc(C)cc1 (centres undefined)
AC50 [1]: 0.178 µM [rising, full curve, poor fit]

Cn1c(Br)nc2c1c(=O)n(Cc1ccccc1)c(=O)n2C
AC50 [1]: 17.8 µM [falling, single point]

CC(C)c1ccc(NC(=O)c2cc(S(=O)(=O)NCc3ccccc3Cl)ccc2F)cc1
AC50 [1]: 11.2 µM [rising, partial curve] | AC50 [2]: 15.8 µM [falling, partial curve, poor fit]

Cc1ccc(-c2cc(C(=O)N3CCN(C(=O)c4ccco4)CC3)no2)cc1
AC50 [1]: 6.51 µM [rising, single point] | AC50 [2]: 6.51 µM [falling, single point]

CN(C)CCCN1C(=O)c2cccc3c(Br)ccc(c23)C1=O
AC50 [1]: 15.8 µM [falling, partial curve, poor fit] | AC50 [2]: 10 µM [rising, partial curve, poor fit]

CC(C)(C)C(=O)NC(=S)Nc1sc2c(c1C(N)=O)CCC2
AC50 [1]: 11.2 µM [falling, partial curve]

O=C(O)Cc1csc(-c2cccc(F)c2)n1
AC50 [1]: 3.98 µM [rising, partial curve, poor fit] | AC50 [2]: 5.62 µM [rising, partial curve, poor fit]

Cc1cccc(C)c1NC(=O)/C(=C/c1ccco1)c1ccccc1
AC50 [1]: 6.51 µM [rising, single point]

CCN(CC)c1ccc(/C=C2\NC(=O)NC2=O)cc1
AC50 [1]: 7.31 µM [rising, partial curve]

CCOc1ccc(NC(=O)CSC2=Nc3ccccc3C3=NC(CC(=O)NCc4ccco4)C(=O)N23)cc1 (centres undefined)
AC50 [1]: 1.26 µM [rising, full curve, poor fit]

CCC1CCC(NC(=O)Nc2cccc(OC)c2)CC1 (centres undefined)
AC50 [1]: 31.6 µM [rising, single point]

S=c1[nH]nc(-c2cc3c(s2)-c2ccccc2CC3)o1
AC50 [1]: 16.4 µM [falling, single point]

O=C(/C=C/c1ccccc1Cl)NC(=S)Nc1ccccc1C(=O)NC1CCCCC1
AC50 [1]: 0.112 µM [rising, full curve, poor fit]

Cc1cccc(-n2c(C)cc(C)c(C#N)c2=O)c1
AC50 [1]: 10 µM [rising, partial curve, poor fit]

COc1ccc(-c2sc3ccccc3c2/C=C/c2ccc(N)cc2)cc1
AC50 [1]: 2.59 µM [rising, partial curve, poor fit]

COc1ccc(C(c2c(O)ccc3ccccc23)N2CCOCC2)c(OC)c1 (centres undefined)
AC50 [1]: 22.4 µM [falling, single point]

CCOc1ccc(-c2nnn(CC(=O)NCc3cccs3)n2)cc1
AC50 [1]: 11.2 µM [rising, partial curve, poor fit]

CN(CCCC(=O)NCc1ccccc1)S(=O)(=O)c1ccc([N+](=O)[O-])cc1
AC50 [1]: 0.1 µM [rising, full curve, poor fit]

CCOc1ccc(/C=C2/Sc3ccc(C(=O)N4CCN(C(=O)c5ccco5)CC4)cc3N(C)C2=O)cc1OC
AC50 [1]: 35.5 µM [falling, single point]

COCCn1c(=S)[nH]c2cc(C(=O)N3CCCC(C)C3)ccc2c1=O (centres undefined)
AC50 [1]: 0.316 µM [falling, full curve, poor fit]

O=C(CN1C(=O)COc2ccccc21)N(Cc1cccnc1)Cc1ccccc1F
AC50 [1]: 2.31 µM [falling, partial curve, poor fit]

O=C(Nc1ccc(N2CCCCC2)cc1)c1cncc(Br)c1
AC50 [1]: 6.31 µM [falling, single point]

C(=N\N=C\c1cccs1)/c1cccs1
AC50 [1]: 0.708 µM [rising, full curve]

COc1cc(S(=O)(=O)Nc2cc(C)cc(C)c2)ccc1F
AC50 [1]: 13 µM [falling, partial curve]

Cc1cccc(NC(=O)c2cc3n(n2)C(C(F)(F)F)CC(C2CC2)N3)c1C (centres undefined)
AC50 [1]: 2.91 µM [rising, single point]

CCCNc1nc(Nc2ccc(C)c(Cl)c2)c2cnn(C)c2n1
AC50 [1]: 22.4 µM [falling, single point]

CCOC(=O)c1ccccc1NC1c2ccccc2C(=O)N1c1ccc(C)cn1 (centres undefined)
AC50 [1]: 25.9 µM [rising, single point]

CC(=O)c1ccc(OCC(O)CN2CCN(S(=O)(=O)c3c(C)cc(C)cc3C)CC2)cc1 (centres undefined)
AC50 [1]: 15.8 µM [rising, partial curve, poor fit]

COc1cccc(NC(=O)c2cnn(-c3ccccc3)c2-n2cccc2)c1
AC50 [1]: 35.5 µM [falling, single point] | AC50 [2]: 3.98 µM [rising, full curve, poor fit]

Cc1ccc(-n2[nH]c(C)c(/C=N/NC(=O)c3cccc([N+](=O)[O-])c3)c2=O)cc1C
AC50 [1]: 2.59 µM [falling, single point]

COc1ccccc1C(=O)NNC(=O)c1cccc([N+](=O)[O-])c1
AC50 [1]: 35.5 µM [falling, single point]

COc1ccccc1NC(=O)CSc1ccc2nnc(-c3cccnc3)n2n1
AC50 [1]: 11.6 µM [falling, partial curve]

Cc1cc(OCC(=O)Nc2ccc(Br)cc2)cc2c1C(=O)CC(C)(C)O2
AC50 [1]: 20 µM [falling, single point]

COC(=O)c1ccc(NC(=O)c2sc3nc(-c4ccccc4)cn3c2C)cc1
AC50 [1]: 1.78 µM [falling, partial curve, poor fit]

O=C(Cc1c(O)c2ccccc2[nH]c1=O)NCc1cccc(F)c1
AC50 [1]: 2.24 µM [rising, partial curve, poor fit]

Cc1cc(C(=O)CSc2nc(N)cc(=O)[nH]2)c(C)n1CCc1ccc(F)cc1
AC50 [1]: 28.2 µM [falling, partial curve, poor fit]

COc1ccc(CCNC(=O)c2ccc(CS(=O)(=O)Cc3cccc(C)c3)o2)cc1OC
AC50 [1]: 7.94 µM [rising, partial curve, poor fit]
